Laboratory results as given in publication PMC12004711.
No constants are given. Whether binding was seen depends on the method and setting. Binding seen in cells or lysates may run through a third protein. Some entries that bind do so weakly or less than the wild type.

Sequences of proteins named here, by UniProt entry; tags and fusion partners are left off. Residues count along the entry.
UniProt P15655, residues 10-154: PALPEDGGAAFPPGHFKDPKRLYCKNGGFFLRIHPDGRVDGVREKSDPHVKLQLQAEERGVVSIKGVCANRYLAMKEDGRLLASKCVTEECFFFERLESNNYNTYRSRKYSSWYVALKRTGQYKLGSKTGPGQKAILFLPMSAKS

Target: T1, Syndecan-4 (mouse (endogenous in eWAT)) (UniProt O35988)
T1 sequence (chain, heparan sulfate chains): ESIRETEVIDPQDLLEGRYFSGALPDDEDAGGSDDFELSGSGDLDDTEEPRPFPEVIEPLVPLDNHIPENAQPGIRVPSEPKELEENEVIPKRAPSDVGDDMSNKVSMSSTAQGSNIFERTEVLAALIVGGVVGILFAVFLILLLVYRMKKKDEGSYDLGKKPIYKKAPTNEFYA
Test: co-IP; eWAT total protein (500 ug) of AT-Sdc4 KO and WT mice fed STC or HFD for 14 weeks; anti-Sdc4 polyclonal antibody or IgG (5 ug/ml) at 4 C overnight; protein A/G Plus-Agarose beads 3 h at room temperature; five washes with ice-cold lysis buffer; Western blot

fibroblast growth factor 2 (from UniProt P15655 10-154) (ligand)
binding: binds
